No constants are given. Whether binding was seen depends on the method and setting. In cells and extracts the contact can be indirect. Some binding calls cover weakened binding; strength is not graded here. Where a sequence is shown, tags or fusion partners need not be part of it.

Chains of the proteins cited; added tags and fusions are not shown.
UniProt P20649: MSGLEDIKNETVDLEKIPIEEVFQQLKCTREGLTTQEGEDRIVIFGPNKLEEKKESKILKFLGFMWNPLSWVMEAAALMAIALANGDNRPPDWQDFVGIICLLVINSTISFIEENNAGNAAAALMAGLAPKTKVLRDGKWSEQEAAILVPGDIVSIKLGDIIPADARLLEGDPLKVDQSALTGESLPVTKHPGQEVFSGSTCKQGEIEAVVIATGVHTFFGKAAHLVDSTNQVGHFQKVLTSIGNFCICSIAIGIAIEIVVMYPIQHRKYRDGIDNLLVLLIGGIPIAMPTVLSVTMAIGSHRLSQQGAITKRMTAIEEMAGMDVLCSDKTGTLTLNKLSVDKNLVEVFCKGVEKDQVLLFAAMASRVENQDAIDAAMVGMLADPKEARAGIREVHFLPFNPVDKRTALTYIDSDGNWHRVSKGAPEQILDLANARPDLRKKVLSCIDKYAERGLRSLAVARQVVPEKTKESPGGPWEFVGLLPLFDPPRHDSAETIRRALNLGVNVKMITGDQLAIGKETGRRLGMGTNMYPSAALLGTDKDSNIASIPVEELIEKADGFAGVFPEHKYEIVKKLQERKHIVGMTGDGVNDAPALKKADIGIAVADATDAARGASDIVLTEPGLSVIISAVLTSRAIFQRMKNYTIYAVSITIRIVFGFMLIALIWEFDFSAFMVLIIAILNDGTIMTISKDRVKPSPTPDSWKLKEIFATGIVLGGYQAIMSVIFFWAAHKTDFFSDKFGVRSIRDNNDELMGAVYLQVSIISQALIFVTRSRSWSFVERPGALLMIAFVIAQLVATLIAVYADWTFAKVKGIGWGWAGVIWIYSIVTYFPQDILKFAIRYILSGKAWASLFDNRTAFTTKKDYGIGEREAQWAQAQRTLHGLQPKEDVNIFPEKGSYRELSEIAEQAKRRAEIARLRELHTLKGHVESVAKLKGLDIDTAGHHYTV

The assay has as its target AHA1-Cluc (Arabidopsis thaliana) (UniProt P20649). Description: split reporter.

B1: GRF2-Nluc (protein, UniProt Q01525 1-259)
chain: MASGREEFVYMAKLAEQAERYEEMVEFMEKVSAAVDGDELTVEERNLLSVAYKNVIGARRASWRIISSIEQKEESRGNDDHVTAIREYRSKIETELSGICDGILKLLDSRLIPAAASGDSKVFYLKMKGDYHRYLAEFKTGQERKDAAEHTLAAYKSAQDIANAELAPTHPIRLGLALNFSVFYYEILNSPDRACNLAKQAFDEAIAELDTLGEESYKDSTLIMQLLRDNLTLWTSDMQDDAADEIKEAAAPKPTEEQQ
B1: the binding entry is recorded as “binds”.

(Values after doi:10.1101/2025.08.16.670655.)
